Results deposited as PubChem BioAssay AID1508588 (Peter MacCallum Cancer Centre, 2020)

- Screen: 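Knock-downs boosting vemurafenib effects on melanoma cell growth or lactate release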 (primary screen)
- Cell system: human WM266.4 melanoma cells (BRAF V600 mutant)
- Reagents: siRNA pool against human genes, 40 nM
- Duration: 96 h from transfection to read-out
- Conditions: vemurafenib 300 nM (about IC25), added 48 h after transfection, for 48 h; comparison arm got DMSO vehicle only
- Measured: 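Ratios to non-targeting siRNA for cell gain, counted as DAPI nuclei after minus before drug and averaged over two replicates, and for absorbance-read medium lactate per cell; both binned into fold-change classes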
- Reading the numbers: cell gain with vemurafenib: higher = more cell gain than with non-targeting siRNA; lactate per cell with vemurafenib: higher = more lactate made per cell
- Call rule: 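Enhancement is called by pairing each knock-down's vehicle-arm and drug-arm fold-change classes for viability or glycolysis; which class combinations qualify is not given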
- Calls: active = enhances vemurafenib effect; inactive = no enhancement seen
The whole screen tested about 18,000 reagents; this is a part drawn at random. 790 of them (4.4%) were called active. 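Calls rest on a combination of fold-change classes in drug and vehicle arms, not all shown here.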

cell gain with vemurafenib | lactate per cell with vemurafenib | call | gene knocked down | PubChem SID
0.98 | 0.62 | inactive | SAMD15 (sterile alpha motif domain containing 15) | SID152150515
0.95 | 0.84 | inactive | ATXN2 (ataxin 2) | SID152152039
0.71 | 1.84 | inactive | SAMD12 (sterile alpha motif domain containing 12) | SID135625094
0.28 | 1.62 | inactive | ADAT3 (adenosine deaminase tRNA specific 3) | SID134319619
0.72 | 1.08 | inactive | PANK1 (pantothenate kinase 1) | SID56478765
0.82 | 0.87 | inactive | HMCN2 (hemicentin 2) | SID135624831
0.74 | 0.13 | active | H2BC4 (H2B clustered histone 4) | SID134315782
-0.03 | 2.94 | inactive | HNRNPK (heterogeneous nuclear ribonucleoprotein K) | SID134316013
0.67 | 0.64 | inactive | CCDC81 (coiled-coil domain containing 81) | SID152149100
0.78 | 0.7 | inactive | SLC35E3 | SID152148448
0.86 | 0.6 | inactive | DNAJB5 (DnaJ heat shock protein family (Hsp40) member B5) | SID135623156
0.5 | 0.8 | inactive | FARS2 (phenylalanyl-tRNA synthetase 2, mitochondrial) | SID135622289
1.13 | 0.4 | inactive | BCLAF3 (BCLAF1 and THRAP3 family member 3) | SID135624486
0.56 | 0.46 | inactive | ARHGEF10 (Rho guanine nucleotide exchange factor 10) | SID135622535
0.22 | 0.79 | inactive | NCKAP5 (NCK associated protein 5) | SID135624339
0.33 | 0.86 | inactive | CTU1 (cytosolic thiouridylase subunit 1) | SID135623020
0.48 | 0.76 | inactive | AFF4 (ALF transcription elongation factor 4) | SID152155393
0.4 | 1.02 | inactive | CARNMT1 (carnosine N-methyltransferase 1) | SID134320361
0.25 | 2.57 | inactive | ZNF394 (zinc finger protein 394) | SID134322820
0.01 | 0.63 | inactive | FLNB (filamin B) | SID152151065
0.53 | 0.66 | inactive | IL22RA2 (interleukin 22 receptor subunit alpha 2) | SID152150471
0.63 | 1.03 | inactive | SSX2IP (SSX family member 2 interacting protein) | SID134324074
0.95 | 0.85 | inactive | KATNBL1 (katanin regulatory subunit B1 like 1) | SID135622740
0.26 | 1.71 | inactive | APPL1 | SID152148498
0.59 | 1.15 | inactive | MUC20 (mucin 20, cell surface associated) | SID135623158
1.08 | 0.81 | inactive | VCX (variable charge X-linked) | SID135622558
0.56 | 1.13 | inactive | CLDN12 (claudin 12) | SID135624168
1.23 | 0.74 | inactive | DYNLT3 (dynein light chain Tctex-type 3) | SID134323712
1.02 | 0.64 | inactive | MYCBP2 (MYC binding protein 2) | SID152149067
0.63 | 0.56 | inactive | GNMT (glycine N-methyltransferase) | SID152149399
1.17 | 0.67 | inactive | RLIM (ring finger protein, LIM domain interacting) | SID135621283
0.33 | 1.87 | inactive | MCM2 (minichromosome maintenance complex component 2) | SID135620651
0.84 | 0.6 | inactive | FKBP9 (FKBP prolyl isomerase 9) | SID152150569
0.42 | 1.02 | inactive | WDR25 (WD repeat domain 25) | SID152148431
0.32 | 0.86 | inactive | MPHOSPH10 (M-phase phosphoprotein 10) | SID134316421
1.03 | 0.83 | inactive | LTBP4 (latent transforming growth factor beta binding protein 4) | SID152148972
0.47 | 1.02 | inactive | STK36 (serine/threonine kinase 36) | SID135620924
0.62 | 1.01 | inactive | SLC3A1 | SID134312621
0.6 | 0.91 | inactive | KIF17 (kinesin family member 17) | SID134325272
0.35 | 0.92 | inactive | KNSTRN (kinetochore localized astrin (SPAG5) binding protein) | SID135624286
0.88 | 0.29 | inactive | OR13C3 (olfactory receptor family 13 subfamily C member 3) | SID152150911
0.44 | 1.15 | inactive | VCAN (versican) | SID134320082
0.76 | 0.96 | inactive | PLSCR3 (phospholipid scramblase 3) | SID134314836
0.93 | 0.74 | inactive | CELSR1 (cadherin EGF LAG seven-pass G-type receptor 1) | SID134310909
0.4 | 0.99 | inactive | GLMN (glomulin) | SID152146914
0.27 | 0.83 | inactive | CALR (calreticulin) | SID134313083
1.11 | 0.65 | inactive | ATL2 (atlastin GTPase 2) | SID134318232
0 | 1.56 | inactive | TUBB1 (tubulin beta 1 class VI) | SID134314320
0.87 | 1.3 | inactive | LINC02145 (long independently transcribed non-coding RNA 2145) | SID152150462
1.02 | 0.55 | inactive | IGFBP1 (insulin like growth factor binding protein 1) | SID152152679
0.63 | 0.26 | inactive | C1QL3 (complement C1q like 3) | SID135624841
0.2 | 1.2 | inactive | MIA2 (MIA SH3 domain ER export factor 2) | SID134324888
1.05 | 0.73 | inactive | MIA2 (MIA SH3 domain ER export factor 2) | SID135623905
0.64 | 0.96 | inactive | SLC23A2 | SID134312508
0.07 | 1.95 | inactive | TCF21 (transcription factor 21) | SID134314615

Laid out differently: 12 of the entries above.
LTBP4 (latent transforming growth factor beta binding protein 4) [SID152148972]: cell gain with vemurafenib = 1.03; lactate per cell with vemurafenib = 0.83; call = inactive
STK36 (serine/threonine kinase 36) [SID135620924]: cell gain with vemurafenib = 0.47; lactate per cell with vemurafenib = 1.02; call = inactive
SLC3A1 [SID134312621]: cell gain with vemurafenib = 0.62; lactate per cell with vemurafenib = 1.01; call = inactive
KIF17 (kinesin family member 17) [SID134325272]: cell gain with vemurafenib = 0.6; lactate per cell with vemurafenib = 0.91; call = inactive
KNSTRN (kinetochore localized astrin (SPAG5) binding protein) [SID135624286]: cell gain with vemurafenib = 0.35; lactate per cell with vemurafenib = 0.92; call = inactive
OR13C3 (olfactory receptor family 13 subfamily C member 3) [SID152150911]: cell gain with vemurafenib = 0.88; lactate per cell with vemurafenib = 0.29; call = inactive
VCAN (versican) [SID134320082]: cell gain with vemurafenib = 0.44; lactate per cell with vemurafenib = 1.15; call = inactive
PLSCR3 (phospholipid scramblase 3) [SID134314836]: cell gain with vemurafenib = 0.76; lactate per cell with vemurafenib = 0.96; call = inactive
CELSR1 (cadherin EGF LAG seven-pass G-type receptor 1) [SID134310909]: cell gain with vemurafenib = 0.93; lactate per cell with vemurafenib = 0.74; call = inactive
GLMN (glomulin) [SID152146914]: cell gain with vemurafenib = 0.4; lactate per cell with vemurafenib = 0.99; call = inactive
CALR (calreticulin) [SID134313083]: cell gain with vemurafenib = 0.27; lactate per cell with vemurafenib = 0.83; call = inactive
ATL2 (atlastin GTPase 2) [SID134318232]: cell gain with vemurafenib = 1.11; lactate per cell with vemurafenib = 0.65; call = inactive

Further entries follow.
cell gain with vemurafenib | lactate per cell with vemurafenib | call | gene knocked down | PubChem SID
0.28 | 1.2 | inactive | RIN1 (Ras and Rab interactor 1) | SID135623866
0.76 | 1.25 | inactive | HMGCLL1 (3-hydroxy-3-methylglutaryl-CoA lyase like 1) | SID152154833
0.22 | 1.31 | inactive | GZMH (granzyme H) | SID152149673
0.9 | 1.03 | inactive | CCDC18 (coiled-coil domain containing 18) | SID152156734
0.86 | 0.9 | inactive | UBE2U (ubiquitin conjugating enzyme E2 U) | SID134313837
0.85 | 0.98 | inactive | ATP8A1 (ATPase phospholipid transporting 8A1) | SID135621516
0.7 | 0.8 | inactive | L3HYPDH (trans-L-3-hydroxyproline dehydratase) | SID134314944
0.95 | 0.8 | inactive | MTHFD2L | SID152151869
0.66 | 0.9 | inactive | ZNF705A (zinc finger protein 705A) | SID152153149
0.2 | 1.29 | inactive | C17orf67 (chromosome 17 open reading frame 67) | SID152151667
0.8 | 0.94 | inactive | GJA1 (gap junction protein alpha 1) | SID152147494
0.6 | 0.44 | inactive | WDR6 (WD repeat domain 6) | SID134317322
0.65 | 0.28 | inactive | RRAS2 (RAS related 2) | SID152147431
0.55 | 0.63 | inactive | REEP3 (receptor accessory protein 3) | SID135625116
0.14 | 2.36 | inactive | PCDHGB3 (protocadherin gamma subfamily B, 3) | SID134317521
0.3 | 1.28 | inactive | CCNB1 (cyclin B1) | SID135620636
1.06 | 0.6 | inactive | TMPRSS9 (transmembrane serine protease 9) | SID135623750
0.84 | 0.94 | inactive | HECW1 | SID152155008
0.51 | 0.44 | inactive | CFAP68 (cilia and flagella associated protein 68) | SID152154152
-0.23 | 2.67 | inactive | ANXA9 (annexin A9) | SID152154854
1.05 | 0.86 | inactive | ZNF174 (zinc finger protein 174) | SID135623770
0.43 | 2.4 | inactive | ELOA2 (elongin A2) | SID135620939
0.27 | 1.4 | inactive | RFESD (Rieske Fe-S domain containing) | SID134321788
0.7 | 0.43 | inactive | RSKR (ribosomal protein S6 kinase related) | SID56478814
0.31 | 1.19 | inactive | GPR4 (G protein-coupled receptor 4) | SID134311012
0.21 | 0.96 | inactive | ZNF75A (zinc finger protein 75A) | SID134320897
0.24 | 0.57 | inactive | MTCH2 | SID134312419
0.25 | 1.36 | inactive | IL33 (interleukin 33) | SID152148005
0.26 | 0.51 | inactive | ZNF70 (zinc finger protein 70) | SID134317042
